Source: paper PMC8698322
No constants are given. Whether binding was seen depends on the method and setting. For part of these data: Binding calls can cover weak binding; strength is not graded here. For part of these data: Sequences can lack the tags named with a protein. For part of these data: In cells and extracts the contact can be indirect.

Sequences of proteins named here, by UniProt entry; tags and fusion partners are left off. A change or cut given only in a name is not applied to a line headed by its entry. Residues count along the entry.
UniProt P02769, residues 25-607: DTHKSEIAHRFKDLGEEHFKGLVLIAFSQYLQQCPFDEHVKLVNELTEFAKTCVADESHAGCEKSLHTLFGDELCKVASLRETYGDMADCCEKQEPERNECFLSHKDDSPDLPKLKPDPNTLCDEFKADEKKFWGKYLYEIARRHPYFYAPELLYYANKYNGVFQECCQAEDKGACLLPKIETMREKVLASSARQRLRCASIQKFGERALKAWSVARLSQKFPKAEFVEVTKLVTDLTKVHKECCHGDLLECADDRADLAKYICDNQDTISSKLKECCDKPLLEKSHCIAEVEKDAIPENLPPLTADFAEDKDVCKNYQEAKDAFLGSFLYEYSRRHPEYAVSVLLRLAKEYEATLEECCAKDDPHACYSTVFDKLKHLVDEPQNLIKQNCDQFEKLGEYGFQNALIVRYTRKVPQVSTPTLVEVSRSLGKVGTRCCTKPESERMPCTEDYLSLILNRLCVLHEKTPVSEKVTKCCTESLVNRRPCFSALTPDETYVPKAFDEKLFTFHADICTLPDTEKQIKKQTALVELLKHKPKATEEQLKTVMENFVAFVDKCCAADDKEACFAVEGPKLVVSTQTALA
UniProt Q257C6: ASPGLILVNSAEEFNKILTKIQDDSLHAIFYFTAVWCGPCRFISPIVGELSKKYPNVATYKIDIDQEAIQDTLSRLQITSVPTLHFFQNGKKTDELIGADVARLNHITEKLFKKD

How the values were obtained:
[1] = target: bovine serum albumin (bovine) (UniProt P02769); experiment: far-Western, overlay or dot blot; PsTRXo1 (1.5 µg), HsATG4B (2.3 µg) and BSA (1.5 µg) spotted on membranes, blocked in TBST (25 mM Tris-HCl pH 7.5, 1% BSA, 0.1% Tween-20), overlaid with 0.2 µg PsTRXo1 or 0.1 µg HsATG4B in TBST for 2 h at room temperature; detected with anti-PsTRXo1 or anti-CrATG4B; both purified
[2] = target: T1, recombinant human ATG4B, His-tagged (His-HsATG4B) (human) (UniProt Q9Y4P1); experiment: as above
T1 sequence: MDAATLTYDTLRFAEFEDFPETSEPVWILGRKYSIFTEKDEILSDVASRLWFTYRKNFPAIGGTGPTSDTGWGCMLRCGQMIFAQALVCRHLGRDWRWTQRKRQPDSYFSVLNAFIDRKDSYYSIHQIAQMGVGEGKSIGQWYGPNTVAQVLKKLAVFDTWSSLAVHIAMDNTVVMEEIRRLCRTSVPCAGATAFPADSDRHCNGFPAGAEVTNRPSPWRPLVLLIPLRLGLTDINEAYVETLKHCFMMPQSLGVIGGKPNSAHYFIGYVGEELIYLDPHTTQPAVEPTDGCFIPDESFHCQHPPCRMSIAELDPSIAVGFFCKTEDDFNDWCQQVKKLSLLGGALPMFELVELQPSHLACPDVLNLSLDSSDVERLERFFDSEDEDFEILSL

[3] = target: T1, recombinant human ATG4B, His-tagged (His-HsATG4B) (human); experiment: co-IP; 4 µg His-HsATG4B and 8 µg PsTRXo1 in 500 µL kit lysis buffer, µMACS Anti-His MicroBeads, 2 h at 4 °C; eluate blotted with anti-His, then with anti-PsTRXo1; both purified

- binding [2]: binds
- binding [3]: binds
Substance: recombinant pea thioredoxin o1 (PsTRXo1) (from UniProt Q257C6)
- binding [1]: no binding (tested: 0.2 µg of recombinant PsTRXo1 overlaid)
